Taken from: PubChem BioAssay AID602196 (INSERM, 2012)
Purpose: 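Modifiers of cisplatin sensitivity in A549 cells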. Cell system: human A549 lung cancer cells. Reagent: siRNA pair against human genes. Timing: 48 h transfection before cisplatin; time from cisplatin to read-out not stated. Treatment: cisplatin at a dose killing half of control-siRNA cells; exact dose and duration not given. Measured: 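Cisplatin cell death as a shift from the 50% death seen with control siRNA; siRNAs toxic or growth-blocking alone scored 0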. Scale: two-siRNA summed score (-2 to +2): higher = both siRNAs protect from cisplatin killing; -2 means both sensitise; mean protection from cisplatin (shift in death): higher = protection from cisplatin killing. Active means: 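Each siRNA scores 0 if harmful alone by LDH or WST-1, otherwise +1 if it reduces and -1 if it increases cisplatin killing; a gene is active when both siRNAs agree (sum +2 or -2)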. Meaning of the calls: active = both siRNAs shift cisplatin killing the same way; inactive = no consistent shift, or siRNA harmful alone.
Here is one part, drawn at random, of about 23,000 reagents. 455 of all reagents (2%) count as active. 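Active includes both protection and sensitisation; some change values fall well beyond the stated -50 to +50 range.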 Entries without a mark were called inactive. Not all columns of the deposit are shown. Not stated in the record: the amount of reagent.

For PTGDR the deposit lists two-siRNA summed score (-2 to +2) = 0; mean protection from cisplatin (shift in death) (%) = 3.5.
For RNPC3, the values are two-siRNA summed score (-2 to +2) = 0; mean protection from cisplatin (shift in death) (%) = 1.2.
For LOC440495, the values are two-siRNA summed score (-2 to +2) = 1; mean protection from cisplatin (shift in death) (%) = 11.9.
Against KIF2C the deposit lists two-siRNA summed score (-2 to +2) = 1; mean protection from cisplatin (shift in death) (%) = 12.1.
LOC391776 scored two-siRNA summed score (-2 to +2) = 0; mean protection from cisplatin (shift in death) (%) = 3.
With knock-down of PCSK2 the results were two-siRNA summed score (-2 to +2) = 0; mean protection from cisplatin (shift in death) (%) = 10.3.
Against FHL5 the deposit lists two-siRNA summed score (-2 to +2) = 0; mean protection from cisplatin (shift in death) (%) = -6.7.
For LOC441065 the deposit lists two-siRNA summed score (-2 to +2) = 0; mean protection from cisplatin (shift in death) (%) = 2.5.
Depletion of LOC401464 came out at: two-siRNA summed score (-2 to +2) = 0; mean protection from cisplatin (shift in death) (%) = 13.4.
Depletion of NALF2 gave: two-siRNA summed score (-2 to +2) = 0; mean protection from cisplatin (shift in death) (%) = 2.
LZTS1 showed two-siRNA summed score (-2 to +2) = -1; mean protection from cisplatin (shift in death) (%) = -2.

Records above whose gene name starts with L or l (5):
LOC440495 → two-siRNA summed score (-2 to +2) = 1; mean protection from cisplatin (shift in death) (%) = 11.9
LOC391776 → two-siRNA summed score (-2 to +2) = 0; mean protection from cisplatin (shift in death) (%) = 3
LOC441065 → two-siRNA summed score (-2 to +2) = 0; mean protection from cisplatin (shift in death) (%) = 2.5
LOC401464 → two-siRNA summed score (-2 to +2) = 0; mean protection from cisplatin (shift in death) (%) = 13.4
LZTS1 → two-siRNA summed score (-2 to +2) = -1; mean protection from cisplatin (shift in death) (%) = -2

The list goes on:
Against GLIPR1L2, the values are two-siRNA summed score (-2 to +2) = 0; mean protection from cisplatin (shift in death) (%) = -2.6.
Silencing of LOC440724 gave: two-siRNA summed score (-2 to +2) = 0; mean protection from cisplatin (shift in death) (%) = 12.2.
With knock-down of LOC440747, the screen gave two-siRNA summed score (-2 to +2) = 1; mean protection from cisplatin (shift in death) (%) = 15.6.
Silencing of ATP5F1D came out at: two-siRNA summed score (-2 to +2) = 1; mean protection from cisplatin (shift in death) (%) = 17.4.
After knock-down of LOC153778, the record shows two-siRNA summed score (-2 to +2) = 0; mean protection from cisplatin (shift in death) (%) = 4.8.
PPP2R5B gave two-siRNA summed score (-2 to +2) = 1; mean protection from cisplatin (shift in death) (%) = 23.7.
SKAP2 showed two-siRNA summed score (-2 to +2) = 0; mean protection from cisplatin (shift in death) (%) = -9.8.
With knock-down of GGT5, the record shows two-siRNA summed score (-2 to +2) = -1; mean protection from cisplatin (shift in death) (%) = -5.5.
EFNB3 showed two-siRNA summed score (-2 to +2) = 0; mean protection from cisplatin (shift in death) (%) = 0.6.
Silencing of ITGA4 resulted in: two-siRNA summed score (-2 to +2) = 0; mean protection from cisplatin (shift in death) (%) = -4.4.
With knock-down of TSPAN7, the screen gave two-siRNA summed score (-2 to +2) = 0; mean protection from cisplatin (shift in death) (%) = -2.2.
With knock-down of WDR82 the results were two-siRNA summed score (-2 to +2) = 0; mean protection from cisplatin (shift in death) (%) = -6.
LOC440381 showed two-siRNA summed score (-2 to +2) = 0; mean protection from cisplatin (shift in death) (%) = -2.4.
Against CYP3A43, the entry reads two-siRNA summed score (-2 to +2) = 0; mean protection from cisplatin (shift in death) (%) = 19.6.
CAV2 scored two-siRNA summed score (-2 to +2) = 0; mean protection from cisplatin (shift in death) (%) = 10.9.
Against C3orf22, the entry reads two-siRNA summed score (-2 to +2) = 0; mean protection from cisplatin (shift in death) (%) = -1.2.
After knock-down of ZBTB7B, the screen gave two-siRNA summed score (-2 to +2) = 0; mean protection from cisplatin (shift in death) (%) = -2.6.
IFITM3P2 gave two-siRNA summed score (-2 to +2) = 0; mean protection from cisplatin (shift in death) (%) = 8.5.
LOC163301 gave two-siRNA summed score (-2 to +2) = 0; mean protection from cisplatin (shift in death) (%) = 13.1.
With knock-down of NR4A1, the record shows two-siRNA summed score (-2 to +2) = 0; mean protection from cisplatin (shift in death) (%) = -16.2.
